Mtb heat-shock: 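Assay on Mycobacterium tuberculosis, filed only as a heat shock assay from Cornell; the read-out is not stated. The concentration is filed as 10 mM, unlikely as a test dose, so the dose is not known. Higher reads as stronger inhibition (inferred: compounds with an IC50 in retests scored well above the rest). Size under these conditions: about 69,000 compounds, about 930 of them at 50% or above in at least one test.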
LdMetRS: 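Primary screen of methionyl-tRNA synthetase; the read-out is not stated. Target: Methionyl-tRNA synthetase (putative), Leishmania donovani (UniProt E9BF75). The test concentration is not given. Values are per cent inhibition. About 68,000 compounds were tested under these conditions; 0.035% (about 24) showed 50% or more at least once.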

Chains of the proteins cited; added tags and fusions are not shown.
UniProt E9BF75, entry or part of it: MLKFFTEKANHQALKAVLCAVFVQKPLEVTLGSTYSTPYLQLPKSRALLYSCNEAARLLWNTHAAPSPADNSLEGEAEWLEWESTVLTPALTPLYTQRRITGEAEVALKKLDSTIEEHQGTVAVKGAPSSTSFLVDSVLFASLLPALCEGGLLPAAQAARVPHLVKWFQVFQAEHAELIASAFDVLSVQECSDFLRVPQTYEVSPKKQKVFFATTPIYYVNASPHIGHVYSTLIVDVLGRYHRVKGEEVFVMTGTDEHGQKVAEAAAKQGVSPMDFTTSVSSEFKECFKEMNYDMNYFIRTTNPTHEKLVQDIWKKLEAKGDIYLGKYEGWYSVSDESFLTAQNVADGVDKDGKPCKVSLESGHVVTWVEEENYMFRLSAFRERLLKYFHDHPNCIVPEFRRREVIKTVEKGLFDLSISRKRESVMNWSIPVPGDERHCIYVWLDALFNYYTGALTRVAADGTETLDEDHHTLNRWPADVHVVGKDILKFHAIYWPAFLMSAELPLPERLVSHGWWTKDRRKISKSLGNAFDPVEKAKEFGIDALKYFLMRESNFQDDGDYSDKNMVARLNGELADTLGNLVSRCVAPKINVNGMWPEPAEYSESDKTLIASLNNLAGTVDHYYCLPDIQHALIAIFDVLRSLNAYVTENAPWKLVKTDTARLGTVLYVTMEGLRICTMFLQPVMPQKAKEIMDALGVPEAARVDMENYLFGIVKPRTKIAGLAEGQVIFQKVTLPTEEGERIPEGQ

Results are percentages, as filed. The controls that fix the scale are not given in the record; negative values are as filed. The compounds are a random part of those screened. A dash means the value is not listed here; it may have been measured.

structure	Mtb heat-shock	LdMetRS
O=C(NCc1ccco1)[C@H]1COC[C@H]2CN(Cc3ccccn3)C[C@H]21	-	11.44%
COCC1c2c(cnn2CC2CC2)CCN1Cc1ccsc1.O=C(O)C(F)(F)F.O=C(O)C(F)(F)F (stereo not shown)	-18.97%	-
COCc1nc2c(o1)CN(C(=O)NCc1ccccc1)C2	15.06%	9.774%
Cc1n[nH]c(C2CN(C(=O)c3ccc4c(c3)CCCC4)CCO2)n1 (stereo not shown)	-9.093%	7.781%
CC(C)CCc1noc(C[S+]([O-])CC(=O)NCc2ccccc2)n1 (stereo not shown)	-16.48%	8.659%
CCc1nccn1C1CCCN(C(=O)CCc2nccs2)C1 (stereo not shown)	4.945%	10.46%
CN(CCSc1nncn1C(C)(C)C)c1ccccc1	-9.842%	-0.8403%
O=C1[C@H]2CN(Cc3ccccn3)C[C@H]2CN1c1ccsc1	-	9.333%
Cc1ccc(CS(=O)(=O)Cc2nc(N)nc(N(C)C)n2)cc1	-5.476%	-15.97%
CC1CCCN(C(=O)CNC(=O)c2ccoc2)C1 (stereo not shown)	-5.634%	2.186%
CCc1cnc(N2C[C@H]3CCCC(N(C)Cc4ccccn4)[C@H]3C2)nc1 (stereo partly shown)	-	6.723%
CCOC(=O)Cn1cnc2nc3n(c2c1=O)CCC3	-15.91%	9.774%
COc1ccnc(NCc2ccccc2Cn2cccn2)n1	-10.62%	4.326%
O=C(CNC(=O)c1ccoc1)NC(c1ccc(F)cc1)C(F)(F)F (stereo not shown)	-12.2%	8.591%
CC(=O)N(Cc1ncc(C(C)C)o1)C1CCN(CCn2cncn2)C1 (stereo not shown)	1.512%	13.02%
O=C(NCCn1ccnc1)C1COCC(=O)N1Cc1ccccc1 (stereo not shown)	-2.365%	0.304%
COc1cccc2sc(OC3CN(C(=O)C4=COCCO4)C3)nc12	-1.348%	5.995%
Cc1ncc(-c2ccnc(NCCc3ccc(F)cc3)n2)c(=O)[nH]1	-6.383%	10.44%
O=C(O)C(F)(F)F.O=C(O)C(F)(F)F.[H][C@]12CCN(C(=O)c3cccs3)CC[C@]1([H])N(CCN(C)C)CCO2	0.07606%	-
CCc1noc(CN2CCC(C(=O)Nc3cnn(CC)c3)CC2)n1	-15.5%	21.08%
CCOc1ccc(CN2CCc3nc4ccsc4c(=O)n3CC2)cc1.Cl	16.23%	-
Cc1nc(N2CCOc3ccc(CO)cc3C2)c2c(C)noc2n1	-19.33%	13.65%
CCn1nc(C)c(NC(=O)CN(C)C(C)c2nccs2)c1C (stereo not shown)	-10.89%	12.15%
[H][C@@]12CS(=O)(=O)C[C@]1([H])N(Cc1nccn1C)CCN2Cc1ccc(C)o1	-19.76%	-
CN(C)C(=O)COC1COC2(CCN(c3cccc(F)c3)CC2)C1 (stereo not shown)	-	15.56%
Cc1nc(NCc2nnc(C)n2C)c2c(CC(C)C)csc2n1	1.963%	12.7%
Cc1cc(C)n(C2CCCN(C(=O)CCc3nccs3)C2)n1 (stereo not shown)	-11.93%	13.33%
Cc1n[nH]c(C)c1-c1nccnc1CC1CCNC1 (stereo not shown)	-5.38%	20.44%
c1ccc2oc(N3CCCC3Cn3cncn3)nc2c1 (stereo not shown)	-11.6%	24.44%
CC(=O)N1C[C@H](NS(=O)(=O)N2CCCC2)[C@@H](c2ccc(C)o2)C1	6.343%	-5.974%
CCc1[nH]c2ccc(CNC(=O)Cc3c(C)nc(N)nc3C)cc2c1C	1.154%	16.25%
Cn1cccc1C(=O)N1CCCCC1c1ccn2ccnc2n1 (stereo not shown)	6.817%	7.742%
O=C(O)C(F)(F)F.[H][C@@]12CCN(c3ncccn3)[C@@]1([H])CCN2S(=O)(=O)c1cccc(F)c1	-0.1775%	-
F[C@@H]1CN(C2CCC2)C[C@@H]1OCc1nc2ncccc2[nH]1	-33.9%	-1.017%
CC1=N[C@@]2(CC[C@@H]3CN(CC(=O)N(C)C)C[C@@H]32)C(=O)N1CC(C)C	-	-2.905%
CS(=O)(=O)N1CCN(c2ccnc(N3CCCC3)n2)CC1	3.373%	9.677%
CNC(C(=O)OC)c1cc(F)ccc1F.Cl (stereo not shown)	1.092%	-
O=C(c1ccccc1)N1CCC[C@]2(C[C@@H](Oc3ncccc3F)CO2)C1	-	9.375%
Cc1ccc(-c2ccnc(NC(C)c3n[nH]c(=O)[nH]3)n2)c(C)n1 (stereo not shown)	8.028%	10.65%
Cc1csc(C(C)(C)NCCNS(C)(=O)=O)n1	-17.83%	13.42%
COc1ccc(N2Cc3nc(N)ncc3C2=O)cc1Cl	-3.338%	13.6%
CN1CCC(N(Cc2ccccc2)C(=O)c2ccn3ccnc3c2)CC1	-50.33%	8.871%
CC(Cn1cccn1)NCc1nc(-c2ccc3c(c2)OCO3)no1 (stereo not shown)	-18.18%	0.7692%
c1coc(CN2CCO[C@H]3[C@H](OCC4CC4)CC[C@@H]32)c1	-	13.74%
O=C(NCc1nn(-c2ccccc2)c2c1CCC2)C1CC1	-8.894%	14.74%
CN(C)c1ccc2c(c1)CN(C(=O)c1c[nH]cn1)C2c1cnco1 (stereo not shown)	-8.595%	1.449%
Cn1cc(CN2CCN(CC3(c4ccccc4)CC3)CC2)cn1	-	11.56%
[H][C@]12CCN(C(=O)c3cc(C)oc3C)C[C@@]1([H])OCCN(C(C)=O)C2	6.285%	-
COc1ccc(-c2n[nH]c(C)c2CC(=O)NCCN2CCOCC2)cc1	-1.321%	14.4%
c1csc(N2CCN(Cc3nnnn3C3CC3)CC2)n1	1.567%	1.449%
CN(CCO)Cc1nnc(C2CCN(C(=O)c3cc[nH]c3)CC2)n1C	-10.95%	2.793%
O=C(O)C(F)(F)F.O=C(O)C(F)(F)F.[H][C@@]12C[C@H](C)O[C@@]1([H])CCN(Cc1ccccn1)C2	-36.91%	-
Cc1cnn(C2CN(Cc3nc(-c4ccsc4)no3)C2)c1	1.948%	6.553%
Cc1cccc(-c2c[nH]c(C3CCCN3C(=O)Cn3cc(C)cn3)n2)c1 (stereo not shown)	-44.89%	9.946%

5 of the entries, repeated:

* [H][C@@]12CS(=O)(=O)C[C@]1([H])N(Cc1nccn1C)CCN2Cc1ccc(C)o1 | Mtb heat-shock: -19.76%
* CCOc1ccc(CN2CCc3nc4ccsc4c(=O)n3CC2)cc1.Cl | Mtb heat-shock: 16.23%
* CC(=O)N(Cc1ncc(C(C)C)o1)C1CCN(CCn2cncn2)C1 (stereo not shown) | Mtb heat-shock: 1.512%; LdMetRS: 13.02%
* CN(CCSc1nncn1C(C)(C)C)c1ccccc1 | Mtb heat-shock: -9.842%; LdMetRS: -0.8403%
* Cc1ncc(-c2ccnc(NCCc3ccc(F)cc3)n2)c(=O)[nH]1 | Mtb heat-shock: -6.383%; LdMetRS: 10.44%

Source: ChEMBL document CHEMBL3988442, “University of Dundee, Small-Polar-MMV Screening Library” (2021).